From article PMC6901540 come the findings set out here.

Protein sequences, listed by entry. Tags and fused reporters are not part of them.
UniProt P23771: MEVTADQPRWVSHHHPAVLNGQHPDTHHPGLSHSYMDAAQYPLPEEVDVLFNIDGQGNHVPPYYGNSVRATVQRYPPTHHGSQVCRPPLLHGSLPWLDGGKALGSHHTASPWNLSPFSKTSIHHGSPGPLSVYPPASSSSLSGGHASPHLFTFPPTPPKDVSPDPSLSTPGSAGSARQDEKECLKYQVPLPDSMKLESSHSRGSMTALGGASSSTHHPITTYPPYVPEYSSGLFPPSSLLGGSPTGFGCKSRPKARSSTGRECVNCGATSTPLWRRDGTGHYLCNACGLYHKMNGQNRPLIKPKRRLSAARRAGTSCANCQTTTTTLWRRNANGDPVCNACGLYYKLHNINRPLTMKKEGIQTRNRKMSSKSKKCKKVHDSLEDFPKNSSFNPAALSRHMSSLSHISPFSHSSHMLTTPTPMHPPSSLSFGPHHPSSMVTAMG

These are yes or no findings as the source states them, for the method shown. In cells and extracts the contact can be indirect. Some results given as binding are weak or reduced against the parent protein; the word gives no strength. Where a sequence is shown, tags or fusion partners need not be part of it.

The target of assay [1] is T1, FLAG-tagged LMO1 (overexpressed in 293T cells) (human) (UniProt P25800).
T1 sequence: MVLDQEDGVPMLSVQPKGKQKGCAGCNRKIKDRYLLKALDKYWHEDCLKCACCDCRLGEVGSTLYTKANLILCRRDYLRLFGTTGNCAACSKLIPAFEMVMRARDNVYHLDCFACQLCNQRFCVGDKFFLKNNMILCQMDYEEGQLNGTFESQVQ
Description: co-IP; FLAG-tagged LMO1 with GATA3 and LDB1, overexpressed in 293T cells.

Assay [2] deals with T2, FLAG-tagged LMO1 (overexpressed in Kelly neuroblastoma cells) (human) (UniProt P25800).
T2 sequence: T1 sequence
The experiment in a line: co-IP; FLAG-tagged LMO1 overexpressed in Kelly neuroblastoma cells; endogenous GATA3 and LDB1.

“GATA3 (in 293T cells) (from UniProt P23771 1-443)”: the binding result in assay [1] is “binds”. For the substance “endogenous GATA3 (Kelly neuroblastoma cells) (from UniProt P23771 1-443)”, in assay [2], the binding result is “binds”.
